PubChem BioAssay AID652243, Drosophila RNAi Screening Center, 2013

Test: 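Fly regulators of androgen-dependent reporter output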 (primary screen)
Cell system: Drosophila S2R+ cells
Reagent: long dsRNA against Drosophila genes
Time to read-out: 72 h (48 h, then 24 h hormone)
Challenge: synthetic androgen R1881 at 10 nM for 24 h
Read-out: 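Firefly light from an androgen-responsive reporter and Renilla control light per well, raw and unnormalised, for each of two replicates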
Direction: firefly reporter light: higher = more light from androgen-responsive reporter; Renilla control light: higher = more constitutive control signal (cell number, transfection)
Active means: 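Across duplicate plates, a knock-down whose log firefly/Renilla ratio shifted a set fold down or up from the GFP/LacZ control mean was a hit; the downward cut appears as both 1.5 and 3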
Meaning of the calls: active = hit: reporter lowered or raised; inactive = no hit
In all, the deposit lists about 24,000 reagents; below is an unselected part of those that have a named target and a result. Over the whole deposit, 246 (1%) were called active. 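Plates not normalised; calls are printed but the firefly/Renilla ratio behind them is not deposited; fold cut for lowering reported inconsistently.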 Raw values vary from plate to plate and are shown uncorrected. Unmarked entries are inactive. Not stated in the record: the amount of reagent.

Target gene | amplicon | firefly reporter light, replicate 1 | firefly reporter light, replicate 2 | Renilla control light, replicate 1 | Renilla control light, replicate 2
CG14932 (GeneID 34589) | DRSC02414 | 2.25e5 | 2.49e5 | 1.15e6 | 1.84e6
CG14932 (GeneID 34589) | DRSC26333 | 4.32e5 | 4.00e5 | 7.01e5 | 8.13e5
dpr14 (GeneID 31702) | DRSC17767 | 60666 | 62616 | 6.48e5 | 3.66e5
dpr14 (GeneID 31702) | DRSC26488 | 1.26e5 | 1.35e5 | 1.96e5 | 1.99e5
Psc (GeneID 36431) | DRSC07518 | 2.24e5 | 1.99e5 | 1.19e6 | 1.45e6
Psc (GeneID 36431) | DRSC29016 | 4.13e5 | 4.82e5 | 1.23e6 | 1.22e6
ash1 (GeneID 40133) | DRSC11325 | 19380 | 20015 | 2.00e5 | 1.39e5
AdoR (GeneID 43583) | DRSC16556 | 81612 | 89004 | 1.38e6 | 1.36e6
AdoR (GeneID 43583) | DRSC28071 | 3.83e5 | 4.10e5 | 9.42e5 | 1.11e6
TwdlU (GeneID 5740279) | DRSC12224 | 1.03e5 | 82115 | 2.13e6 | 2.21e6
TwdlU (GeneID 5740279) | DRSC29063 | 7.09e5 | 6.87e5 | 1.52e6 | 1.36e6
CG3650 (GeneID 37974) | DRSC04401 | 1.66e5 | 2.38e5 | 1.28e6 | 1.54e6
CG3650 (GeneID 37974) | DRSC28976 | 5.42e5 | 4.54e5 | 1.24e6 | 1.30e6
Trf5 (GeneID 33454) | DRSC38935 | 9.20e5 | 8.24e5 | 1.90e6 | 1.84e6
tx (GeneID 43190) | DRSC16931 | 36315 | 48677 | 5.79e5 | 5.56e5
tx (GeneID 43190) | DRSC27383 | 3.65e5 | 3.83e5 | 3.91e5 | 5.43e5
CG17778 (GeneID 30996) | DRSC18504 | 2.57e5 | 1.89e5 | 3.87e6 | 3.05e6
Spn28Da (GeneID 34082) | DRSC02162 | 1.50e5 | 2.07e5 | 1.48e6 | 1.20e6
l(2)k05911 (GeneID 34731) | DRSC02523 | 6.51e5 | 5.39e5 | 3.49e6 | 4.20e6
CheB42b (GeneID 2768717) | DRSC22878 | 5.05e5 | 3.36e5 | 1.30e6 | 1.82e6
Ufsp1 (GeneID 246489) | DRSC04958 | 91654 | 1.07e5 | 3.25e5 | 4.74e5
Ufsp1 (GeneID 246489) | DRSC27352 | 3.26e5 | 3.09e5 | 6.56e5 | 7.83e5
CG32488 (GeneID 326220) | DRSC08549 | 4.10e5 | 4.21e5 | 2.97e6 | 4.37e6
CG32488 (GeneID 326220) | DRSC21537 | 7.64e5 | 5.83e5 | 2.83e6 | 2.20e6
CG6912 (GeneID 41820) | DRSC16132 | 1.05e5 | 1.19e5 | 2.29e6 | 1.55e6
CG13323 (GeneID 36433) | DRSC06360 | 3.87e5 | 2.69e5 | 2.38e6 | 1.96e6
CG17472 (GeneID 35320) | DRSC02622 | 1.48e5 | 1.52e5 | 1.47e6 | 1.70e6
CG14624 (GeneID 31068) | DRSC18634 | 87498 | 79494 | 1.34e6 | 9.83e5
CG14624 (GeneID 31068) | DRSC25253 | 8.06e5 | 1.05e6 | 9.10e5 | 1.16e6
CG3713 (GeneID 50365) | DRSC18648 | 2.95e5 | 3.43e5 | 3.11e6 | 2.71e6
CG2533 (GeneID 32110) | DRSC19855 | 4.35e5 | 4.45e5 | 4.77e6 | 4.16e6
CG2533 (GeneID 32110) | DRSC28777 | 6.55e5 | 3.89e5 | 1.54e6 | 1.05e6
Eps-15 (GeneID 37961) | DRSC04288 | 6.70e5 | 6.46e5 | 1.05e6 | 1.18e6
Pcf11 (GeneID 36658) | DRSC23350 | 3.01e5 | 2.50e5 | 2.56e5 | 3.13e5
EcR (GeneID 35540) | DRSC04906 | 3.77e5 | 3.74e5 | 1.91e6 | 1.50e6
EcR (GeneID 35540) | DRSC04910 | 1.48e6 | 1.20e6 | 2.31e6 | 2.49e6
EcR (GeneID 35540) | DRSC39130 | 1.75e6 | 1.19e6 | 1.67e6 | 1.26e6
Smvt (GeneID 43744) | DRSC15426 | 2.75e5 | 3.00e5 | 2.82e6 | 3.84e6

Single entries from the list.
Entry of dpr14 (GeneID 31702) [DRSC26488] in “firefly reporter light, replicate 2”: 1.35e5
Value for TwdlU (GeneID 5740279) [DRSC29063] in “Renilla control light, replicate 1”: 1.52e6
Value of AdoR (GeneID 43583) [DRSC16556] under “Renilla control light, replicate 1”: 1.38e6
TwdlU (GeneID 5740279) [DRSC12224], Renilla control light, replicate 2 = 2.21e6
For “Renilla control light, replicate 2”, CG17778 (GeneID 30996) [DRSC18504] reads 3.05e6
CheB42b (GeneID 2768717) [DRSC22878], firefly reporter light, replicate 2 → 3.36e5

The list goes on.
Target gene | amplicon | firefly reporter light, replicate 1 | firefly reporter light, replicate 2 | Renilla control light, replicate 1 | Renilla control light, replicate 2
Datp (GeneID 318908) | DRSC01102 | 78301 | 1.36e5 | 3.07e5 | 2.96e5
D19B (GeneID 38717) | DRSC11134 | 1.03e5 | 77014 | 1.09e6 | 1.05e6
D19B (GeneID 38717) | DRSC25382 | 6.79e5 | 3.86e5 | 2.57e5 | 2.64e5
CG43307 (GeneID 12798569) | DRSC00893 | 4.18e5 | 7.38e5 | 1.18e6 | 1.65e6
CG14104 (GeneID 50259) | DRSC10106 | 3.27e5 | 2.34e5 | 2.17e6 | 2.94e6
CG14736 (GeneID 41466) | DRSC14956 | 1.77e5 | 2.22e5 | 2.72e6 | 3.36e6
CG14736 (GeneID 41466) | DRSC23985 | 1.24e6 | 1.43e6 | 1.03e6 | 1.01e6
CG3918 (GeneID 31585) | DRSC23159 | 5.33e5 | 6.93e5 | 1.34e6 | 1.53e6
CG3918 (GeneID 31585) | DRSC28834 | 4.38e5 | 5.14e5 | 1.17e6 | 1.14e6
e (GeneID 42521) | DRSC16936 | 71124 | 86171 | 8.44e5 | 9.36e5
e (GeneID 42521) | DRSC24320 | 4.57e5 | 4.55e5 | 3.91e5 | 3.69e5
CG33160 (GeneID 326265) | DRSC08197 | 79390 | 96772 | 1.32e6 | 1.08e6
CG33160 (GeneID 326265) | DRSC26770 | 3.17e5 | 2.39e5 | 1.92e5 | 2.79e5
Ca-beta (GeneID 34557) | DRSC02406 | 1.43e5 | 2.08e5 | 1.11e6 | 1.25e6
Ca-beta (GeneID 34557) | DRSC02407 | 2.76e5 | 3.56e5 | 1.12e6 | 1.55e6
Ca-beta (GeneID 34557) | DRSC03285 | 2.95e5 | 2.30e5 | 2.32e6 | 2.75e6
Ca-beta (GeneID 34557) | DRSC21432 | 6.16e5 | 5.98e5 | 2.08e6 | 1.77e6
Ca-beta (GeneID 34557) | DRSC23813 | 9.66e5 | 1.00e6 | 1.04e6 | 1.01e6
Ca-beta (GeneID 34557) | DRSC38975 | 9.27e5 | 7.29e5 | 2.30e6 | 1.95e6
ft (GeneID 33627) | DRSC00819 | 7.45e5 | 8.00e5 | 1.84e6 | 2.02e6
